# Data from patent US20260062441A1, “TUMOR-SEEKING GLUCOSE-DENDRONS FOR THE DELIVERY OF CHEMOTHERAPEUTICS AND IMAGING AGENT TO CANCER CELLS” (THE BOARD OF TRUSTEES OF THE UNIVERSITY OF ILLINOIS, priority 2022, published 2026).
# Tests used:
# [1] = PA imaging unmixing experiment in tissue-mimicking phantoms; details: water with hemoglobin 10 mg/mL
# A549 cells = assay: Colocalization studies with organelle trackers; type: cell-based, human
Structure (SMILES),PA signal after unmixing ([1]; 30 μM),"PA intensity after spectral unmixing, higher than AB-OMe2 ([1]; same dye concentration (30 μM)) [fold]","Pearson coefficient, colocalization with DAPI (A549 cells)","Pearson coefficient, colocalization with Lysotracker Green (A549 cells)","Pearson coefficient, colocalization with MitoTracker Green (A549 cells)"
"COc1ccc(C2=[N+]3C(=Nc4c(-c5ccccc5)cc(-c5ccc(OC)cc5)n4[B-]3(F)F)C(c3ccccc3)=C2)cc1 [AB-OMe2, reference compound]",barely above background,,,,
CO[B-]1(OC)n2c(-c3ccc(OCc4cn(C(COC5OC(CO)C(O)C(O)C5O)COC5OC(CO)C(O)C(O)C5O)nn4)cc3)cc(-c3ccccc3)c2N=C2C(c3ccccc3)=CC(c3ccc(OCc4cn(C(COC5OC(CO)C(O)C(O)C5O)COC5OC(CO)C(O)C(O)C5O)nn4)cc3)=[N+]21 (centres unmarked) [mvGlu-AB2],,11,0.629,0.505,0.475
